Experimental data from patent publication US20220089735A1.
These are yes or no findings as the source states them, for the method shown. Some binding calls cover weakened binding; strength is not graded here. Where a sequence is shown, tags or fusion partners need not be part of it.

T1: mouse B7S1-his (R&D system, cat#4206-B7-100) (mouse) (UniProt Q7TSP5)
T1 sequence (looked up): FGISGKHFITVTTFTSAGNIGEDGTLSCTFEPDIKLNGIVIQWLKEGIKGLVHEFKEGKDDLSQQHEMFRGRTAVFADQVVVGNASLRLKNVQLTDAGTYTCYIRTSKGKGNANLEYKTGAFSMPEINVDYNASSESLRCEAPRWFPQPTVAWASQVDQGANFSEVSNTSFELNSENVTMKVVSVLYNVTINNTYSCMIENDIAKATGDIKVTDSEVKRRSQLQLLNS


Target: T1, mouse B7S1-his (R&D system, cat#4206-B7-100) (mouse)
Test: ELISA, antigen coated on plate

binding | Binder
binds | humanized anti-B7S1 antibody VH1-4/VL4-5 (antibody, V domains shown) VH: QVQLVQSGAEVKKPGASVKVSCKASGYTFTSYWMHWVRQAPGQGLEWIAAIYPGNSDTDYNQKFKGKAKITAVTSTSTVYMELSSLRSEDTAVYYCTTTVAHYFDYWGQGTMVTVSS VL: EIVMTQSPATLSLSPGERATLTCKASQDVSFAVAWYQQKPGQAPKLLISSASYRYTGVPDRFSGSGSGTDFTLTISSLEPEDFAVYYCQQHYNTPLTFGGGTKVEIK
binds | humanized anti-B7S1 antibody VH1-5/VL4-4 (antibody, V domains shown) VH: QVQLVQSGAEVKKPGASVKVSCKASGYTFTSYWMHWVKQAPGQGLEWIAAIYPGNSDTDYNQKFKGKAKITAVTSTSTAYMELSSLRSEDTAVYYCTTTVAHYFDYWGQGTMVTVSS VL: EIVLTQSPATLSLSPGERATLSCKASQDVSFAVAWYQQKPGQAPRLLISSASYRYTGVPDRFSGSGSGTDFTLTISSLEPEDFAVYYCQQHYNTPLTFGGGTKVEIK
binds | humanized anti-B7S1 antibody VH1-5/VL4-5 (antibody, V domains shown) VH: QVQLVQSGAEVKKPGASVKVSCKASGYTFTSYWMHWVKQAPGQGLEWIAAIYPGNSDTDYNQKFKGKAKITAVTSTSTAYMELSSLRSEDTAVYYCTTTVAHYFDYWGQGTMVTVSS VL: EIVMTQSPATLSLSPGERATLTCKASQDVSFAVAWYQQKPGQAPKLLISSASYRYTGVPDRFSGSGSGTDFTLTISSLEPEDFAVYYCQQHYNTPLTFGGGTKVEIK
